Assay results reported in patent publication US12319721B2 (Purdue Research Foundation, priority 2018, dated 2025).

System: fracture callus of fractured femur
Assay: Femur fracture model, microCT of the fracture callus (BV/TV, BV, TbTh, TbSp)
Format: in vivo, Swiss Webster mice
Details: 4 weeks, various concentrations (1, 10 and in part 100 nmol/day), subcutaneous daily
Description: All in vivo data included herein are from Swiss Webster mice. […] 1×concentration represents 1 nmol/day, 10× represents 10 nmol/day, 100×represents 100 nmol/day and most studies have an n of 5.
The term “BV/TV” means the bone volume divided by total volume of the 100 thickest micro CT slices of the fracture callus.
The term “TbTh” means the trabecular thickness of the 100 thickest micro CT slices of the fracture callus.
The term “[…]” means the overall bone volume of the 100 thickest micro CT slices of the fracture callus.
The term “TbSp” means the spacing between the trabecula in the 100 thickest micro CT slices of the fracture callus.
The targeted conjugates were synthesized using standard Fmoc solid-phase peptide synthesis, as described above. […] Expression levels of ALP, RUNx2, OSX, osteo-pontin (OPN), collagen 1A (Col-1A), OPG, RANKL, scle-rostin gene (SOST), and OC were quantified via quantitative reverse transcription polymerase chain reaction (RT-qPCR). […] Fracture healing was assessed using microCT (Scanco Medical Ag). Morphometric parameters were quantified in the 100 widest slices of the fracture callus. Trabecular thickness (TbTh), trabecular spacing (TbSp), total volume (TV), and volume of calcified callus (BV) were calculated. […]

## TP508 D10: Thrombin fragment TP508 conjugated with 10 aspartate acids, SEQ ID NO: 12, DDDDDDDDDDAGYKPDEGKRGDACEGDSGGPFV (10 aspartates)
  BV/TV: dose dependent manner
